Literature values as cited in paper PMC6153549 (Investigational New Drugs, 2018).

System: UGTs
Details: in vitro, human liver microsomes; cited from earlier work

SMILES: CNC(=O)c1ccccc1Sc1ccc2c(/C=C/c3ccccn3)n[nH]c2c1 [axitinib]
- inhibition of paracetamol glucuronidation: slight inhibitory effect
